Measured values: patent publication US20240158370A1, “CK1 alpha AND DUAL CK1 alpha / GSPT1 DEGRADING COMPOUNDS” (Innovo Therapeutics, Inc., priority 2022, published 2024)

The chains behind the UniProt entries cited, without tags or fusion partners.
UniProt P48729, whole entry: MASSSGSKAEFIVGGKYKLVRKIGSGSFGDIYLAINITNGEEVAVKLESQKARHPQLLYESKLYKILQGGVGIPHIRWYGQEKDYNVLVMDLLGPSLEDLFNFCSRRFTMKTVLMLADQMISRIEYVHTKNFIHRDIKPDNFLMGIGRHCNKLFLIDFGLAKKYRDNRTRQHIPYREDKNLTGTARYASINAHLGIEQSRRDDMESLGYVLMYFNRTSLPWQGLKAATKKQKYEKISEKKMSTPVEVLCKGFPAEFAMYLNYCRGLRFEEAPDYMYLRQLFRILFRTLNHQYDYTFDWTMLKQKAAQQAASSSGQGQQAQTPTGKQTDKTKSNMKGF
UniProt Q96SW2, whole entry: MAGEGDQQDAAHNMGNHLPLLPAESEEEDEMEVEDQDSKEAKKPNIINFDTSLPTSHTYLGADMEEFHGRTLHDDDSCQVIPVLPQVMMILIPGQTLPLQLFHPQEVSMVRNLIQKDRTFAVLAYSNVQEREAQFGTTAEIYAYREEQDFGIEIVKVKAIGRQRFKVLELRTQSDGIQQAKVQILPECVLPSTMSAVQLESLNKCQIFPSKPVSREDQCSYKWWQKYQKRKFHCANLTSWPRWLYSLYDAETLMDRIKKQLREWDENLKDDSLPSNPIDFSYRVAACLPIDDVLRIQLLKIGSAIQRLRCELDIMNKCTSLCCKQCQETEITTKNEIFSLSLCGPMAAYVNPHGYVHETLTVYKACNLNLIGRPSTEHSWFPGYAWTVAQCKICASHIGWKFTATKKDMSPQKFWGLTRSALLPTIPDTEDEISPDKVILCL
UniProt P15170, whole entry: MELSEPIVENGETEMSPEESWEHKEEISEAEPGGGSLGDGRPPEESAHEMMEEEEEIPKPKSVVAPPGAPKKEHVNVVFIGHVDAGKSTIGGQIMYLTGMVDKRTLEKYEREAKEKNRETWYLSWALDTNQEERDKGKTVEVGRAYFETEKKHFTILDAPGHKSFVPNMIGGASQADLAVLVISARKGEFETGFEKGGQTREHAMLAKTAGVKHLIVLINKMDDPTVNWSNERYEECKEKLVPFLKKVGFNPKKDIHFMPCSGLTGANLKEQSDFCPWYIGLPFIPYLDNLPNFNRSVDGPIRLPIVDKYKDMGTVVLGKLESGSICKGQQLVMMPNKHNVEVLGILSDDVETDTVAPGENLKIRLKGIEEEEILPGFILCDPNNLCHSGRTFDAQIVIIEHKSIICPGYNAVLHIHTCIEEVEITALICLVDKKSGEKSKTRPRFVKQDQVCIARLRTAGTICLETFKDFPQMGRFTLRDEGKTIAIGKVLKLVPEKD
UniProt Q16531, whole entry partner: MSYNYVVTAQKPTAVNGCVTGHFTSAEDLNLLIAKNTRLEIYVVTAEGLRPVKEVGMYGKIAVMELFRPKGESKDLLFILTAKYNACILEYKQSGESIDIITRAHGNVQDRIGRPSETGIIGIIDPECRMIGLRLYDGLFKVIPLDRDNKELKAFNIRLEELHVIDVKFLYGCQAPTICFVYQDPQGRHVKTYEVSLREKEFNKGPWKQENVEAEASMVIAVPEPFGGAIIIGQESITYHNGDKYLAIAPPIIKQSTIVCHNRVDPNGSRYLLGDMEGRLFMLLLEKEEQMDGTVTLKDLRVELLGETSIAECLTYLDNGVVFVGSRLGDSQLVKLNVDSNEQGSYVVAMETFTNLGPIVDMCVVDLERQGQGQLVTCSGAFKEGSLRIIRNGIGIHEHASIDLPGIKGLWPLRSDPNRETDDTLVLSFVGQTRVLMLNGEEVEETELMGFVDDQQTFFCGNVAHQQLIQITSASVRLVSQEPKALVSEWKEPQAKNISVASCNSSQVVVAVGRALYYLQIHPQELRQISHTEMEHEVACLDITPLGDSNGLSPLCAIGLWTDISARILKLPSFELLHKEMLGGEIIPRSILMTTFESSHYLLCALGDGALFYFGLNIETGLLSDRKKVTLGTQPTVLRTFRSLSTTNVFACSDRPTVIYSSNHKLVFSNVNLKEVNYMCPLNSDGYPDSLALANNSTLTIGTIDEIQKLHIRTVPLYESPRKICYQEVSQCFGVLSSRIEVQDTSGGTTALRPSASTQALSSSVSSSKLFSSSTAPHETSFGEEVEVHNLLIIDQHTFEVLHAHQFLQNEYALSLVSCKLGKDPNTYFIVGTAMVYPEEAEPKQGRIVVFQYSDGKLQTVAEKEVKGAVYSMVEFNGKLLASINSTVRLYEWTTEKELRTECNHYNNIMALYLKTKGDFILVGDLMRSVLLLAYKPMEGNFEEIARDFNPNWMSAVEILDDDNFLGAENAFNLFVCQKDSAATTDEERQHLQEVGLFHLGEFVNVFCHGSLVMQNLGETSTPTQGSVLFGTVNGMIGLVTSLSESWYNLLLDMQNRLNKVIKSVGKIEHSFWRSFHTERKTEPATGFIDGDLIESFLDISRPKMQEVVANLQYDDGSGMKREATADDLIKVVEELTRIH

Assays:
CK1α = CK1α (Homo sapiens, UniProt P48729+Q96SW2); assay: HiBiT degradation assay, CK1α, Procedure A
GSPT1 = GSPT1 (Homo sapiens, UniProt P15170+Q96SW2); assay: HiBiT degradation assay, GSPT1, Procedure A

Cc1ccc(-c2c(-c3ccc4c(c3)CN(C3CCC(=O)NC3=O)C4=O)ncn2C)o1 (stereo not shown)
DC50 (CK1α; read-out: CK1α DC50, six hours): < 25 nM | CK1α Ymin (CK1α; six hours): C (C = 0-10% remaining) | DC50 (GSPT1; read-out: GSPT1 DC50, six hours): < 25 nM | GSPT1 Ymin (GSPT1; six hours): F (F = >75-100% remaining)

The structures given here were assigned with low confidence; some may be wrong.
